34 molecules from the supplement of paper PMC9135407 can be followed below.

The test system of this assay is primary human hepatic stellate cells (donor 1). Nature of the assay: percent Bodipy-positive cells; higher = more lipid droplet accumulation. The note with it: 48 h.
Where [1] appears, read: library stock concentration: 400 uM.
The mark [2] stands for this setting: library stock concentration: 3.33 mM.
Setting [3] is: library stock concentration: 10 mM.
The mark [4] stands for this setting: library stock concentration: 1 mM.
Where [5] appears, read: library stock concentration: 80 uM.
Where [6] appears, read: library stock concentration: 2 mM.
Setting [7] is: library stock concentration: 4.7 mM.

Where “and” joins values, the source holds several entries; their conditions need not be identical. Equal entries are not always repeated. Structures can show the parent of a compound that is named as a salt. ± gives the standard deviation of the averaged measurements. The list shows a part of the results. Part of the spread comes from offsets between plates or batches.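 Culture-activated primary human stellate myofibroblasts, where regained lipid droplets signal inactivation. Value: share of Hoechst-counted cells above a per-plate Bodipy cutoff, in duplicate wells, with DMSO negative and nortriptyline positive controls on each plate. Hits: a control-normalized score above the plate's top-tenth-percentile nortriptyline wells, or one of a plate's three best wells. Final well concentrations are not given.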

For the molecule `CC(C)(C)c1nc2c3cc[nH]c(=O)c3c3cc(F)ccc3c2[nH]1` [Merck -5 (0.4 mM)], the “percent Bodipy-positive cells” value under setting [1] came out at 18.2 ± 6.8%.
For `CC(C)(C)c1nc2c3cc[nH]c(=O)c3c3cc(F)ccc3c2[nH]1` [JAK Inhibitor I], the “percent Bodipy-positive cells” value under setting [2] worked out at 10.6 ± 3%.
In the case of `CC(C)(C)c1nc2c3cc[nH]c(=O)c3c3cc(F)ccc3c2[nH]1` [Merck -5 (10 mM)], the “percent Bodipy-positive cells” value under setting [3] was 38.2 ± 13%.
Turning to `CC(=O)O[C@]1(C(C)=O)CC[C@H]2[C@@H]3C[C@H](C)C4=CC(=O)CC[C@]4(C)[C@H]3CC[C@@]21C` [Medroxyprogesterone acetate], the “percent Bodipy-positive cells” value under setting [2] was 8.54 ± 3.2%; the “percent Bodipy-positive cells” value (library stock concentration: 5.2 mM) stood at 3.71 ± 3.4%; the “percent Bodipy-positive cells” value under setting [3] is 13.9% and 15.9%.
Consider `CC(=O)O[C@]1(C(C)=O)CC[C@H]2[C@@H]3C[C@H](C)C4=CC(=O)CC[C@]4(C)[C@H]3CC[C@@]21C` [Medroxyprogesterone 17-acetate], for which the “percent Bodipy-positive cells” value is, setting by setting: under setting [3], 21.7 ± 7.9%; (library stock concentration: 16.4 mM) 10.7 ± 3.6%.
Turning to `O=C(O)c1cc(-c2ccccc2)nc2ccccc12`, the “percent Bodipy-positive cells” value under setting [3] was found to be 36.4 ± 21%.
Regarding `O=C(O)c1cc(-c2ccccc2)nc2ccccc12` [Cinchophen], the “percent Bodipy-positive cells” value reads like this: under setting [2], 10.6 ± 2.7%; under setting [3], 19 ± 3.2%.
In the case of `CCCc1c(OCC(O)COc2ccc3c(=O)cc(C(=O)O)oc3c2CCC)ccc(C(C)=O)c1O` (stereo not drawn), the “percent Bodipy-positive cells” value under setting [3] came to 5.15 ± 1.5%.
On to `O.O.O.O.O.O.O.O.O.O.O.O.O.O.O.O.O=S(=O)([O][Al])OC[C@H]1O[C@@](COS(=O)(=O)[O][Al])(O[C@H]2O[C@H](COS(=O)(=O)[O][Al])[C@@H](OS(=O)(=O)[O][Al])[C@H](OS(=O)(=O)[O][Al])[C@H]2OS(=O)(=O)[O][Al])[C@@H](OS(=O)(=O)[O][Al])[C@@H]1OS(=O)(=O)[O][Al]` [Sucralfate sodium (10% w/v in dmso)], for which the “percent Bodipy-positive cells” value (library stock concentration: 900 uM) came to 20 ± 11%.
Regarding `CCCCCCCCCCCCCCCCOC[C@H](COP(=O)([O-])OCC[N+](C)(C)C)OC(=O)CCCCCCCC(=O)O` [Azelaoyl PAF], under setting [4], the “percent Bodipy-positive cells” value was determined as 7.54 ± 1.6%.
For the molecule `CNc1cc(OC)c(C(=O)NC2CCN(Cc3ccccc3)C2C)cc1Cl` (stereo not drawn) [Nemonapride], the “percent Bodipy-positive cells” value under setting [3] worked out at 47.5 ± 7.2%.
Take `COc1cc2c(Oc3ccc4[nH]c(C)cc4c3F)ncnc2cc1OCCCN1CCCC1` [Cediranib]: the “percent Bodipy-positive cells” value worked out at 16.6 ± 0.96% under setting [5], 50.2 ± 9% under setting [1] and 98.51 ± 0.68% under setting [3].
Turning to `COc1cc2c(Oc3ccc4[nH]c(C)cc4c3F)ncnc2cc1OCCCN1CCCC1` [Cediranib (AZD2171)], the “percent Bodipy-positive cells” value under setting [3] worked out at 100%.
In the case of `CC(=O)N[C@@H](Cc1c[nH]c2ccccc12)C(N)=O` [Acetyltryptophanamide], under setting [3], the “percent Bodipy-positive cells” value is 15.8 ± 6.1%.
`COc1cc(N2CCC(C(N)=O)CC2)ccc1Nc1nc(N)c(Cl)c(Nc2ccccc2S(=O)(=O)C(C)C)n1`: the “percent Bodipy-positive cells” value runs as follows: under setting [5], 7.16 ± 3.6%; under setting [1], 8.55 ± 6.6%; under setting [6], 19.8 ± 7.7%; under setting [3], 69.8 ± 18%.
Take `CN(C)c1nc(N(C)C)nc(N(C)C)n1` [Altretamine]: the “percent Bodipy-positive cells” value was determined as 7.51 ± 1.7%. The “percent Bodipy-positive cells” value under setting [2] came to 11.5 ± 8%. For the same molecule, the “percent Bodipy-positive cells” value (library stock concentration: 9.5 mM) was 6.03% and 23.5%.
In the case of `COc1cc2c(cc1-c1c(C)noc1C)ncc1[nH]c(=O)n([C@H](C)c3ccccn3)c12`, the “percent Bodipy-positive cells” value under setting [5] was determined as 36.8 ± 2.1%, the “percent Bodipy-positive cells” value under setting [1] is 32.2 ± 3.9%, the “percent Bodipy-positive cells” value under setting [6] was 40.84 ± 0.1% and the “percent Bodipy-positive cells” value under setting [2] came to 11.5 ± 3.4%.
In the case of `CC(NC(=O)C(O)c1cc(F)cc(F)c1)C(=O)NC1C(=O)N(C)c2ccccc2-c2ccccc21` (stereo not drawn), the “percent Bodipy-positive cells” value is 5.78 ± 1.5% under setting [2] and 4.6 ± 0.14% under setting [3].
Take `COc1nccc(-c2c(-c3ccc(F)cc3)ncn2C2CCNCC2)n1`: the “percent Bodipy-positive cells” value under setting [1] is 27.5 ± 18%, the “percent Bodipy-positive cells” value under setting [6] was determined as 35.2 ± 6.8% and the “percent Bodipy-positive cells” value under setting [3] is 38.8 ± 9.2%.
Take `CC(=O)Oc1ccc2c(c1)CCC1C2CC[C@]2(C)C(=O)CCC12` (stereo partly drawn) [Estrone acetate]: the “percent Bodipy-positive cells” value under setting [3] amounted to 31.3 ± 7.2%.
Turning to `Nc1nc2c(nc(Br)n2C2OC3COP(=O)(O)O[C@@H]3C2O)c(=O)[nH]1` (stereo partly drawn) [8-Bromo-cGMP sodium], the “percent Bodipy-positive cells” value under setting [3] stood at 37.3 ± 10%.
Consider `Nc1nc2n[nH]nc2c(=O)[nH]1` [Azaguanine-8], for which the “percent Bodipy-positive cells” value is 48.2 ± 2%. Besides, the “percent Bodipy-positive cells” value under setting [2] was 23.2 ± 6.7%. Besides, the “percent Bodipy-positive cells” value under setting [3] turned out to be 77.6 ± 4.5%.
Take `CCCCCCCC/C=C\CCCCCC(=O)OC` [cis-7-Hexadecenoic Acid methyl ester]: the “percent Bodipy-positive cells” value under setting [4] came out at 9.93 ± 1.6%.
Turning to `CCCCCC(O)CCC1C(O)CC(=O)C1CCCCCCC(=O)O` (stereo not drawn) [13,14-dihydro Prostaglandin E1], under setting [4], the “percent Bodipy-positive cells” value came to 21.7 ± 4.5%.
As for `CCCCCC(O)CCC1C(O)CC(=O)C1CCCCCCC(=O)O` [13,14-dihydro-15(R)-Prostaglandin E1], under setting [4], the “percent Bodipy-positive cells” value stood at 9.6 ± 1.4%.
For `COc1cc(/C=C(\C#N)C(=O)Nc2nnc(C(F)(F)F)s2)ccc1OCc1ccc(C(F)(F)F)cc1C(F)(F)F`, the “percent Bodipy-positive cells” value under setting [3] is 16.9 ± 0.2%.
Turning to `COc1ccccc1OCC(O)CN1CCN(CC(=O)Nc2c(C)cccc2C)CC1` (stereo not drawn) [Ranolazine], the “percent Bodipy-positive cells” value was determined as 9.49 ± 4%. Under setting [2], the “percent Bodipy-positive cells” value amounted to 10.2 ± 8.7%. Under setting [7], the “percent Bodipy-positive cells” value is 13.8 ± 1.9%.
Consider `COc1ccccc1OCC(O)CN1CCN(CC(=O)Nc2c(C)cccc2C)CC1` (stereo not drawn) [Ranolazine dihydrochloride], for which, under setting [3], the “percent Bodipy-positive cells” value is 8.19% and 14.5%.
For `COc1ccccc1OCC(O)CN1CCN(CC(=O)Nc2c(C)cccc2C)CC1` (stereo not drawn) [Ranolazine 2HCl], the “percent Bodipy-positive cells” value came out at 10.2 ± 5% under setting [2], 8 ± 2.4% under setting [7] and 21.6 ± 1.1% under setting [3].
As to `O=[N+]([O-])c1cccc2cn[nH]c12`, under setting [3], the “percent Bodipy-positive cells” value is 5.88 ± 0.27%.
Regarding `O=P(O)(O)O[C@H]1[C@H](O)[C@@H](O)[C@H](OP(=O)(O)O)[C@@H](OP(=O)(O)O)[C@H]1O` [D-myo-Inositol-1,3,4-triphosphate (sodium salt)], under setting [4], the “percent Bodipy-positive cells” value was 7.74 ± 3.6%.
As for `COc1cc([C@@H]2c3cc4c(cc3[C@@H](O[C@@H]3O[C@@H]5CO[C@@H](C)O[C@H]5[C@H](O)[C@H]3O)[C@H]3COC(=O)[C@H]23)OCO4)cc(OC)c1O` [Etoposide], the “percent Bodipy-positive cells” value stood at 31.86 ± 0.17%. Further, the “percent Bodipy-positive cells” value under setting [2] was 15.9 ± 1.4%.
Turning to `NC(=O)C(c1ccccc1)(c1ccccc1)[C@@H]1CCN(CCc2ccc3c(c2)CCO3)C1` [Darifenacin HBr], the “percent Bodipy-positive cells” value under setting [2] amounted to 36.8 ± 11%.
As to `NC(=O)C(c1ccccc1)(c1ccccc1)[C@@H]1CCN(CCc2ccc3c(c2)CCO3)C1`, under setting [3], the “percent Bodipy-positive cells” value was 59.4 ± 1.1%.
